Experimental data published in the supplement of paper PMC10849652.
This is one part of the list.

The chains behind the UniProt entries cited, without tags or fusion partners. Where a name states a change or a piece, a line headed by the entry shows the natural chain unless it says otherwise.
UniProt P51687: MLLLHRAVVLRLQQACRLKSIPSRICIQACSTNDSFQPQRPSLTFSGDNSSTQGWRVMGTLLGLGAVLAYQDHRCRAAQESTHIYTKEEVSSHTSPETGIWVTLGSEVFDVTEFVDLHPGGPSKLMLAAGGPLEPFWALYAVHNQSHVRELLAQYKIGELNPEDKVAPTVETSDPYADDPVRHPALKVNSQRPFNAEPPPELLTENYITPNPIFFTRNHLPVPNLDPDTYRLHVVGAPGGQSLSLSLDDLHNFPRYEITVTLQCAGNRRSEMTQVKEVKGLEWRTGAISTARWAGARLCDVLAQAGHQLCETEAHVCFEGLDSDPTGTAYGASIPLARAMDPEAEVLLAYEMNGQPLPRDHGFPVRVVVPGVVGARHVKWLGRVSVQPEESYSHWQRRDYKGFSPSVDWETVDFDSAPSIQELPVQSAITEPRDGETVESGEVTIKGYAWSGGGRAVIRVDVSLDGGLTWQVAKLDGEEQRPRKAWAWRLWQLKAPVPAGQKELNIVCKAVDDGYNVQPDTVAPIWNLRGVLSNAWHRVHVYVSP
UniProt O00506, whole entry, looked up: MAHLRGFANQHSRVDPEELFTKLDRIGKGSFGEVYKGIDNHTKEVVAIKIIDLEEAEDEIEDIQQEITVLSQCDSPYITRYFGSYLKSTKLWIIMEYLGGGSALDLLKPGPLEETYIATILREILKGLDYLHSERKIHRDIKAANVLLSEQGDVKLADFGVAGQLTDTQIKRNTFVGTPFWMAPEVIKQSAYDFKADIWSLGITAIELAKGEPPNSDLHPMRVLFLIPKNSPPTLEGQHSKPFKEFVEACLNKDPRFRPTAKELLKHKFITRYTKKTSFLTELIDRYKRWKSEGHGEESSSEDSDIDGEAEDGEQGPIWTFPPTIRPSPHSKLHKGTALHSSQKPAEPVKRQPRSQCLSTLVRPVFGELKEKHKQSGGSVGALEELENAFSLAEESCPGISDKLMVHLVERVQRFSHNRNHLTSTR
UniProt Q9NYJ8: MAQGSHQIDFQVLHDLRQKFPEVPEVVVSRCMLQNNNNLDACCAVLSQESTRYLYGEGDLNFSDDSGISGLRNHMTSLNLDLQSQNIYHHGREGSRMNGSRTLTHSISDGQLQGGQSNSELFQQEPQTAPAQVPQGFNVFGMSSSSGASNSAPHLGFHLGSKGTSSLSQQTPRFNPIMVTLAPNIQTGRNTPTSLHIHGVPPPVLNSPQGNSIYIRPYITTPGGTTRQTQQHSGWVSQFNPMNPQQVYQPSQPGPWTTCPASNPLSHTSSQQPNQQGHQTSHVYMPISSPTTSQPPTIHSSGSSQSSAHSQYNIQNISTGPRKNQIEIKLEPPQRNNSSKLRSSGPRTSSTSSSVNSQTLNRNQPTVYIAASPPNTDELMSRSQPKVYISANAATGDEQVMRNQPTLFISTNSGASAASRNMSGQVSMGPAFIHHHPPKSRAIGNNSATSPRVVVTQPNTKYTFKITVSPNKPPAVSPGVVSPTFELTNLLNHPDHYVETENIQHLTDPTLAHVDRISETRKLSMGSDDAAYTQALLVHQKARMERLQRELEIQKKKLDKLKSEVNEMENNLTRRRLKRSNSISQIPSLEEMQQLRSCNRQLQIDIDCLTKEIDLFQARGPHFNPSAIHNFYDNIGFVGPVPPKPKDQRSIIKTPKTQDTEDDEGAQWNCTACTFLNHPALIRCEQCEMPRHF
UniProt Q9NRL3: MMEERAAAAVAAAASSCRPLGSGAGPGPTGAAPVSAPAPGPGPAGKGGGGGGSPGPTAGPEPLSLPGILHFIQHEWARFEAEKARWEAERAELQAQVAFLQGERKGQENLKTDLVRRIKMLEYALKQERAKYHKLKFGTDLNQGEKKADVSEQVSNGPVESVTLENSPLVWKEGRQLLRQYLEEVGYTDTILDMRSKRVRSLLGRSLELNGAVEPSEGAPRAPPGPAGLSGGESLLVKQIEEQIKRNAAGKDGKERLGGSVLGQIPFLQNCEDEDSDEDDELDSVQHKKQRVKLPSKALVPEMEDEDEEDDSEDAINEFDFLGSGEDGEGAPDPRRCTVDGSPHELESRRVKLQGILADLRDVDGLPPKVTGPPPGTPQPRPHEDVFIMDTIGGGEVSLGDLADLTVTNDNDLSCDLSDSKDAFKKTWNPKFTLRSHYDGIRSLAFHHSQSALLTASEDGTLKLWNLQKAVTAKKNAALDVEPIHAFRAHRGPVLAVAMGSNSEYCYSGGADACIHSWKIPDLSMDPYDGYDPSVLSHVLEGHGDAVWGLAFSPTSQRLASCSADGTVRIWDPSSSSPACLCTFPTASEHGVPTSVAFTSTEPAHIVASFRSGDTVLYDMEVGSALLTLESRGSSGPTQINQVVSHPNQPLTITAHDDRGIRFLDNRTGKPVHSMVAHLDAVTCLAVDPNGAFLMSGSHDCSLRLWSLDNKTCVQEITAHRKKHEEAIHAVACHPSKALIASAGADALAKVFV
UniProt Q9H169: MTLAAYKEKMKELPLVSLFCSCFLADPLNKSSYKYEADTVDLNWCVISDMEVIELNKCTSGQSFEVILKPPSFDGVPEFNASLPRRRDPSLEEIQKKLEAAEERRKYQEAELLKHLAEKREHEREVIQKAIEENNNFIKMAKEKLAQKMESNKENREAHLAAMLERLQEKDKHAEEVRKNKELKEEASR
UniProt P49848, whole entry, looked up: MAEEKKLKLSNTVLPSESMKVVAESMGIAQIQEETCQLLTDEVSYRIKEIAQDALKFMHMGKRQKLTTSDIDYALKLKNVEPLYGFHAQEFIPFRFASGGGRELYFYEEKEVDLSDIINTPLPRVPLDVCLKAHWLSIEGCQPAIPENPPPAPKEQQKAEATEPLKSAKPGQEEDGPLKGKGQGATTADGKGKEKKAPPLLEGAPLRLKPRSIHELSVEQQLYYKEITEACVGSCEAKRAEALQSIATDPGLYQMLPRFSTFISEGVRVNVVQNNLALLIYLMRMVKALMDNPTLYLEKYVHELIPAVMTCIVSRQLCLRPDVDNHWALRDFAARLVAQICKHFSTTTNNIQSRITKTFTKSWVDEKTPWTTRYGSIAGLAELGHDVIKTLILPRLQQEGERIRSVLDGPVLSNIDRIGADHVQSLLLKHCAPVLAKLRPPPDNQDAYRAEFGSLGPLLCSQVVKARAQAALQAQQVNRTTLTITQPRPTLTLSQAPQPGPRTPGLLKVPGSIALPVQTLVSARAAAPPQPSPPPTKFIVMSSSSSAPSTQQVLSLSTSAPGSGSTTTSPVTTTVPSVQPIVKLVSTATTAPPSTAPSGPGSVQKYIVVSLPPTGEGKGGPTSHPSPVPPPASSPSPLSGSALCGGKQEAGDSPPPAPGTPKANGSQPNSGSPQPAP
UniProt O60506: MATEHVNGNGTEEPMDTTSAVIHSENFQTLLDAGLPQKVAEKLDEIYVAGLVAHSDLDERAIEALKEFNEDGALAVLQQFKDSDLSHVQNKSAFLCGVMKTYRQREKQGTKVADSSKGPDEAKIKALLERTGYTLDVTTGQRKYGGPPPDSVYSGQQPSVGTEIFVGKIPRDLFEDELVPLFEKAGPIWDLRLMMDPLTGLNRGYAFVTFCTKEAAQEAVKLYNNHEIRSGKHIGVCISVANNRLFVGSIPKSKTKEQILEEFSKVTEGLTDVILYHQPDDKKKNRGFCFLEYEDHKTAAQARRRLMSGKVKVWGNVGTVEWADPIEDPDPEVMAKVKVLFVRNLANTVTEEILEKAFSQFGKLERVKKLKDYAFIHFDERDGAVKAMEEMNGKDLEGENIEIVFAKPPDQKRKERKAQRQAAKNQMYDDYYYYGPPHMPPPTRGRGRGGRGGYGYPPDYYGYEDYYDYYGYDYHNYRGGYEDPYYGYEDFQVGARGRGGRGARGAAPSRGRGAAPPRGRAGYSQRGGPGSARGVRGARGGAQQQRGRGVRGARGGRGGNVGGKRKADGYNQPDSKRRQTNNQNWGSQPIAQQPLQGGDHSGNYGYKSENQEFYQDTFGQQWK
UniProt Q15527: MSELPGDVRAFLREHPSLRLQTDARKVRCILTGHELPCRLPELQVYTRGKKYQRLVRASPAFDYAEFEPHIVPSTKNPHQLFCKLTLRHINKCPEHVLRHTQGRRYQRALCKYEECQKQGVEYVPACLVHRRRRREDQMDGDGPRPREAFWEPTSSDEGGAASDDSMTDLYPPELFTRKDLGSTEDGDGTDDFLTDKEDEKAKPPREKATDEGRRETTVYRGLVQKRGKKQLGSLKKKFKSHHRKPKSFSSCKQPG
UniProt Q8NEM7: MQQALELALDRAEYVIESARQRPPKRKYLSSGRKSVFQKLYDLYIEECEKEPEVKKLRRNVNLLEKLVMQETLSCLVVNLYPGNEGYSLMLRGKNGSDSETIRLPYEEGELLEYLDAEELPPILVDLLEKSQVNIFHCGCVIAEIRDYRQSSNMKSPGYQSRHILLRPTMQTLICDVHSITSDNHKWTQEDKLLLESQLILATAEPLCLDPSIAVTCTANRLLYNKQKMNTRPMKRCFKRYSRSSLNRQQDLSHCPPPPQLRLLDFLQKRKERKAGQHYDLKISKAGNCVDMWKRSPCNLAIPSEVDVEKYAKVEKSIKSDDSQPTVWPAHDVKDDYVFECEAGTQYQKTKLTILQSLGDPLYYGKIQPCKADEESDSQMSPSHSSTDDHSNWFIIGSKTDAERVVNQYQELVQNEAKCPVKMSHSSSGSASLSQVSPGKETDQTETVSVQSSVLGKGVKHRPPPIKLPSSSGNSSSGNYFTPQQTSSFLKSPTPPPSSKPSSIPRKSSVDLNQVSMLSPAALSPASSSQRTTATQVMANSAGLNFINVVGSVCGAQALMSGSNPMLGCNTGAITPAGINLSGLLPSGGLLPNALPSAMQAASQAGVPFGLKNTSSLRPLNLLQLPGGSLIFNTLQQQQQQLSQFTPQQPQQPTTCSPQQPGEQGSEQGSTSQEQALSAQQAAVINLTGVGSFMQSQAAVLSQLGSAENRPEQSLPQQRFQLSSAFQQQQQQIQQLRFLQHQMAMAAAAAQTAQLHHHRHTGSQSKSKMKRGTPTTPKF
UniProt Q53T94: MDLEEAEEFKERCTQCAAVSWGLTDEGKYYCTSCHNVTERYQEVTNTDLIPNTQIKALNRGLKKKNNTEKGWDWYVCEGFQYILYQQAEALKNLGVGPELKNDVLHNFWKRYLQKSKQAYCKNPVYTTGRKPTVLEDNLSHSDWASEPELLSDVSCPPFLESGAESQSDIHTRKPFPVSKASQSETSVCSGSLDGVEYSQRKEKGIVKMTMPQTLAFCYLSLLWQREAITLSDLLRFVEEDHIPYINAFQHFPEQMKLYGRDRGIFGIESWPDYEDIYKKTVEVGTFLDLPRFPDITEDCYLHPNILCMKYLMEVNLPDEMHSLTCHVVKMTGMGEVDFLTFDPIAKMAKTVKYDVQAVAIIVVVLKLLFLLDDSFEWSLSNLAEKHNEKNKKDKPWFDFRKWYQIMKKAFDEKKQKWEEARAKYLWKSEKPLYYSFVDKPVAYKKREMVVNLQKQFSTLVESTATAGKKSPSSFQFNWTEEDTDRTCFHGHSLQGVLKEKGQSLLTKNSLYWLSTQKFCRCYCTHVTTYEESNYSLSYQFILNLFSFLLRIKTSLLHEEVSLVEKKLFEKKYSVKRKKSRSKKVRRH
UniProt Q15750: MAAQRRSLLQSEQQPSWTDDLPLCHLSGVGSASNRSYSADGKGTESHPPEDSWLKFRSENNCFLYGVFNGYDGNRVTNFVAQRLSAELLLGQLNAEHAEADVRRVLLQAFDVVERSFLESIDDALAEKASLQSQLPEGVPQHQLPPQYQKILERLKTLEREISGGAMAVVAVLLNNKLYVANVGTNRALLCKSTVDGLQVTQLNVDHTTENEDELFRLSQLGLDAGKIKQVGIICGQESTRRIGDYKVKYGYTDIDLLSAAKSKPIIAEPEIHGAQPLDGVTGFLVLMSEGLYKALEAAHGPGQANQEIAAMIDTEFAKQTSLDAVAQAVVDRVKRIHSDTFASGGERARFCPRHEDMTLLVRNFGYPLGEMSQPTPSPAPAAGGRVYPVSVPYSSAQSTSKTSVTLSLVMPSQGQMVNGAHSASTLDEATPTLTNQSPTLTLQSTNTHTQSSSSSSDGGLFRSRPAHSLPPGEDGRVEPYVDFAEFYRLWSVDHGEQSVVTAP
UniProt Q6ZWJ1: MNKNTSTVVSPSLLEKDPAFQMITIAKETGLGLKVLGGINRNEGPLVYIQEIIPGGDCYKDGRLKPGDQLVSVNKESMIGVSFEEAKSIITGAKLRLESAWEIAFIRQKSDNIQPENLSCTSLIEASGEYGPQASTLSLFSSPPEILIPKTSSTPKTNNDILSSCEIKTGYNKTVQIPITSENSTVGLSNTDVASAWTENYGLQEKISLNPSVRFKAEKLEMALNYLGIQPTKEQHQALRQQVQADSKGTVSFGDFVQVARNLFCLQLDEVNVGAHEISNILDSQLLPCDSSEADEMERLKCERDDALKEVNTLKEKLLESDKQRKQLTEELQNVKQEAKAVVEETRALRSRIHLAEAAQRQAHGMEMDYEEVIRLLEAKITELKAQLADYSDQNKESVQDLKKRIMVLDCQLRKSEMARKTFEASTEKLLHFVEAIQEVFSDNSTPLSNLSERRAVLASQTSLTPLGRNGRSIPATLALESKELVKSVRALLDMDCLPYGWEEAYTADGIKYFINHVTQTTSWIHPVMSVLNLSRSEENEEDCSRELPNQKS

Legend:
Assay in all cases: log2 fold change, soluble protein after heating vs DMSO (PISA); higher = thermal stabilisation; K562 lysate, 10 uM; active = over 0.2 and 3.5 SD of the protein, either way, in both replicates (recomputed)
vemurafenib = compound: CCCS(=O)(=O)Nc1ccc(F)c(C(=O)c2c[nH]c3ncc(-c4ccc(Cl)cc4)cc23)c1F [vemurafenib]
Method in brief: (§1)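 The values are log-two fold changes in thermal stability compared with solvent controls and come from duplicates. They were obtained by TMTpro 16plex LC-MS/MS, with channel sums equalised, on the supernatant after 21,000xg for 90 min. That supernatant came from crude K562 extract at 1 mg/mL protein treated with 10 μM compound for 30 min, heated for 3 min across 48°C-58°C, pooled and brought to 0.5% NP-40 at 4°C.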

[1] = compound: CCCS(=O)(=O)Nc1ccc(F)c(C(=O)c2c[nH]c3ncc(Cl)cc23)c1F
Method in brief: as §1

barasertib = compound: CCN(CCCOc1ccc2c(Nc3cc(CC(=O)Nc4cccc(F)c4)[nH]n3)ncnc2c1)CCOP(=O)(O)O [barasertib]
Method in brief: as §1

[2] = compound: CC[C@@H]1C(=O)N(C)c2cnc(Nc3ccc(C(=O)NC4CCN(C)CC4)cc3OC)nc2N1C1CCCC1
Method in brief: as §1

volasertib = compound: CC[C@@H]1C(=O)N(C)c2cnc(Nc3ccc(C(=O)N[C@H]4CC[C@H](N5CCN(CC6CC6)CC5)CC4)cc3OC)nc2N1C(C)C [volasertib]
Method in brief: as §1

[3] = compound: CCn1c(C(=O)N(C2CC2)C2CC2)cc2c3c(ncn3C)c(Nc3cc(C)n(C)n3)nc21
Method in brief: as §1

[4] = compound: CCn1cc(-c2ccnc3[nH]c(-c4cccc(CN(C)C)c4)cc23)c(-c2ccc(NC(=O)N(C)C)cc2)n1
Method in brief: as §1

[5] = compound: CN1CCC(CNc2ccc3ncc(-c4cccc(OC(F)(F)F)c4)n3n2)CC1
Method in brief: as §1

saracatinib = compound: CN1CCN(CCOc2cc(OC3CCOCC3)c3c(Nc4c(Cl)ccc5c4OCO5)ncnc3c2)CC1 [saracatinib]
Method in brief: as §1

sotrastaurin = compound: CN1CCN(c2nc(C3=C(c4c[nH]c5ccccc45)C(=O)NC3=O)c3ccccc3n2)CC1 [sotrastaurin]
Method in brief: as §1

Measured: log2 fold change

SUOX (UniProt P51687)
inactive: vemurafenib -0.06 | [1] 0.006 | barasertib 0.02 | [2] -0.098 | volasertib 0.003 | [3] 0.013 | [4] -0.014 | [5] 0.022 | saracatinib 0.024 | sotrastaurin 0.03

STK25 (UniProt O00506)
inactive: vemurafenib -0.018 | [1] -0.005 | barasertib 0.017 | [2] -0.034 | volasertib -0.078 | [3] -0.042 | [4] -0.037 | [5] 0.016 | saracatinib -0.026 | sotrastaurin 0.022

TAB2 (UniProt Q9NYJ8)
inactive: vemurafenib -0.103 | [1] -0.006 | barasertib 0.012 | [2] 0.053 | volasertib -0.058 | [3] -0.034 | [4] -0.036 | [5] 0.018 | saracatinib -0.015 | sotrastaurin 0.013

STK26 (UniProt Q9P289)
inactive: vemurafenib 0.021 | [1] -0.008 | barasertib -0.009 | [2] -0.032 | volasertib -0.064 | [3] 0.037 | [4] -0.045 | [5] -0.048 | saracatinib -0.02 | sotrastaurin 0.006

STRN4 isoform 3 (UniProt Q9NRL3)
inactive: vemurafenib 0.007 | [1] 0.008 | barasertib 0.09 | [2] -0.018 | volasertib -0.026 | [3] 0.049 | [4] -0.039 | [5] 0.063 | saracatinib -0.002 | sotrastaurin -0.016

SUPT7L (UniProt O94864)
inactive: vemurafenib -0.009 | [1] -0.023 | barasertib -0.029 | [2] -0.006 | volasertib -0.008 | [3] 0.048 | [4] -0.029 | [5] 0.044 | saracatinib 0.206 | sotrastaurin -0.024

SURF1 (UniProt Q15526)
inactive: vemurafenib -0.01 | [1] 0.046 | barasertib -0.008 | [2] 0.014 | volasertib -0.031 | [3] 0.028 | [4] 0.037 | [5] -0.073 | saracatinib 0.017 | sotrastaurin 0.002

STRIP2 (UniProt Q9ULQ0)
inactive: vemurafenib -0.074 | [1] -0.002 | barasertib -0.007 | [2] -0.018 | volasertib -0.02 | [3] -0.085 | [4] 0.079 | [5] -0.068 | saracatinib -0.037 | sotrastaurin 0.033

STMN4 isoform 2 (UniProt Q9H169)
inactive: vemurafenib -0.095 | [1] -0.087 | barasertib 0.008 | [2] -0.224 | volasertib 0.088 | [3] 0.071 | [4] 0.024 | [5] 0.045 | saracatinib 0.003 | sotrastaurin 0.012

SULT1A1 (UniProt P50225)
inactive: vemurafenib 0.014 | [1] 0.004 | barasertib -0.017 | [2] 0.032 | volasertib -0.046 | [3] -0.016 | [4] 0.014 | [5] -0.009 | saracatinib 0.037 | sotrastaurin -0.009

STMN2 isoform 2 (UniProt Q93045)
inactive: vemurafenib 0.024 | [1] -0.065 | barasertib -0.042 | [2] 0.017 | volasertib 0.079 | [3] 0.004 | [4] 0.07 | [5] -0.077 | saracatinib -0.055 | sotrastaurin -0.007

STK39 (UniProt Q9UEW8)
inactive: vemurafenib 0.002 | [1] 0.01 | barasertib 0.012 | [2] -0.046 | volasertib -0.048 | [3] 0.001 | [4] -0.013 | [5] -0.027 | saracatinib -0.002 | sotrastaurin 0.02

Quoted at random: two entries already listed
STK25 (UniProt O00506)
inactive: vemurafenib -0.018 | [1] -0.005 | barasertib 0.017 | [2] -0.034 | volasertib -0.078 | [3] -0.042 | [4] -0.037 | [5] 0.016 | saracatinib -0.026 | sotrastaurin 0.022

STK26 (UniProt Q9P289)
inactive: vemurafenib 0.021 | [1] -0.008 | barasertib -0.009 | [2] -0.032 | volasertib -0.064 | [3] 0.037 | [4] -0.045 | [5] -0.048 | saracatinib -0.02 | sotrastaurin 0.006

The list continues:

TAF6 isoform 3 (UniProt P49848)
inactive: vemurafenib 0.015 | [1] -0.116 | barasertib -0.022 | [2] 0.118 | volasertib 0.002 | [3] 0.015 | [4] -0.052 | [5] -0.022 | saracatinib -0.061 | sotrastaurin 0.098

STX3 (UniProt Q13277)
inactive: vemurafenib -0.051 | [1] -0.027 | barasertib 0.008 | [2] -0.013 | volasertib -0.006 | [3] -0.014 | [4] 0.199 | [5] 0.015 | saracatinib -0.011 | sotrastaurin -0.035

SYNJ2BP-COX16, A0A087WYV9
inactive: vemurafenib 0.037 | [1] -0.073 | barasertib -0.008 | [2] 0.015 | volasertib -0.026 | [3] -0.031 | [4] 0.093 | [5] -0.105 | saracatinib -0.011 | sotrastaurin 0.012

SWAP70 (UniProt Q9UH65)
inactive: vemurafenib 0.016 | [1] 0.002 | barasertib 0 | [2] -0.031 | volasertib -0.019 | [3] 0.023 | [4] -0.221 | [5] 0.04 | saracatinib 0.029 | sotrastaurin -0.001

STXBP3 (UniProt O00186)
inactive: vemurafenib 0.03 | [1] 0 | barasertib 0.004 | [2] -0.005 | volasertib -0.046 | [3] 0.017 | [4] 0.128 | [5] -0.065 | saracatinib 0.016 | sotrastaurin -0.016

STXBP5 (UniProt Q5T5C0)
inactive: vemurafenib 0.03 | [1] -0.012 | barasertib 0.007 | [2] 0.029 | volasertib 0.011 | [3] 0.009 | [4] -0.072 | [5] 0.01 | saracatinib 0.016 | sotrastaurin -0.027

SYNCRIP isoform 3 (UniProt O60506)
inactive: vemurafenib 0.1 | [1] 0.091 | barasertib -0.053 | [2] -0.008 | volasertib 0.078 | [3] 0.018 | [4] 0.008 | [5] -0.026 | sotrastaurin 0.04

SUPT6H (UniProt Q7KZ85)
inactive: vemurafenib 0.062 | [1] 0.03 | barasertib 0.091 | [2] 0.064 | volasertib -0.04 | [3] 0.056 | [4] -0.055 | [5] 0.015 | saracatinib -0.028 | sotrastaurin 0.008

SURF2 (UniProt Q15527)
inactive: vemurafenib -0.009 | [1] -0.002 | barasertib -0.007 | [2] 0.049 | volasertib 0.002 | [3] 0.127 | [4] -0.063 | [5] 0.02 | saracatinib 0.004 | sotrastaurin -0.007

SUPT20H isoform 3 (UniProt Q8NEM7)
inactive: vemurafenib -0.034 | [1] 0.087 | barasertib 0.013 | [2] 0.065 | volasertib -0.095 | [3] -0.118 | saracatinib 0.144 | sotrastaurin -0.006

SUPT16H (UniProt Q9Y5B9)
inactive: vemurafenib 0.001 | [1] 0.02 | barasertib -0.02 | [2] -0.031 | volasertib -0.032 | [3] -0.008 | [4] 0.005 | [5] -0.046 | saracatinib 0.02 | sotrastaurin 0.017

TAF1B (UniProt Q53T94)
inactive: vemurafenib 0.397 | [1] -0.217 | barasertib 0.11 | [2] -0.212 | volasertib -0.057 | [3] -0.039 | [4] -0.12 | [5] 0.166 | saracatinib 0.045 | sotrastaurin 0.055

TACC1 (UniProt O75410)
inactive: vemurafenib -0.044 | [1] -0.003 | barasertib 0.044 | [2] 0.056 | volasertib 0.008 | [3] 0.032 | [4] 0.054 | [5] -0.082 | saracatinib 0.041 | sotrastaurin -0.042

TAB1 (UniProt Q15750)
inactive: vemurafenib -0.048 | [1] -0.004 | barasertib 0.049 | [2] -0.035 | volasertib -0.032 | [3] 0.024 | [4] -0.009 | [5] 0.005 | saracatinib 0.007 | sotrastaurin 0

STXBP4 (UniProt Q6ZWJ1)
inactive: vemurafenib 0.035 | [1] 0.027 | barasertib 0.023 | [2] 0.032 | volasertib -0.045 | [3] 0.047 | [4] 0.008 | [5] -0.057 | saracatinib -0.044 | sotrastaurin 0.002

SUZ12 (UniProt Q15022)
inactive: vemurafenib 0.012 | [1] 0.022 | barasertib -0.012 | [2] 0.024 | volasertib -0.001 | [3] 0.012 | [4] -0.026 | [5] -0.002 | saracatinib -0.019 | sotrastaurin 0
